## Screening data

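Luminescence from an EWS-FLI1 target-promoter (NR0B1) reporter, set against a CMV-promoter reporter, two days after silencing single genes in TC32 Ewing sarcoma cells.
Each siRNA was applied at 20 nM.
A z-score of the log NR0B1-over-CMV signal, less the median of siRNAs with the same seed; more negative means a stronger specific loss of the NR0B1 reporter.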

This is part of the screen; most of the strongest results are not listed here.
Sequences are the guide (antisense) strand, without overhang.

| Sequence | gene | seed-corrected z-score |
|---|---|---|
| `UCGGGAUUAAGAUGGGCUC` | AMBP | 0.3907 |
| `UAAACGUAAACUUAUAUGG` | TM9SF2 | -0.07703 |
| `UUAGAUUAAUCUUAAUGGG` | EIF2S1 | -0.7832 |
| `UCUCCUAUUAACCAUAUCC` | SMC6 | -0.3534 |
| `UUACUGAAGUCGCCAAGCA` | AKR1C2 | 0.04257 |
| `UACCUGUUCACUCUUUGGG` | ZNF232 | 0.1199 |
| `AAAGCGAGAAAUCUCAAUC` | HRASLS2 | 0.09415 |
| `UCACGGUCUUCUCAAAUGC` | PPP1R3B | -0.9452 |
| `UGGUGUUAUACAACUCUCC` | CCDC82 | -0.1028 |
| `UUUAUAGAAAUACCGAUGC` | BSDC1 | 0.2327 |
| `UGAGCAACCGGUCAAAGAG` | EGLN2 | -0.4894 |
| `UCAUCUUCUGGAGUCCUCC` | ATF3 | -0.6381 |
| `AAAGCAUCAAGAUAUCUUU` | C1orf115 | 0.2698 |
| `AACAAUCCAAGGUCAAGGC` | TTLL2 | -0.3613 |
| `UGCAUUUACAGCACUCACG` | ALG8 | -0.2762 |
| `UACGGUAGAUACAGGAUUG` | OVCH1 | -0.9799 |
| `UUUCUAAAACAGUCGCUUC` | EIF4E3 | 0.3457 |
| `UUGCGCACCAGCUUGUCUU` | ZBTB7B | 0.111 |
| `UUAUCUAGGAUGCAAAGAC` | UNC5D | -0.5296 |
| `UAUAUAUAAGGUAACCUUG` | RPL15P17 | 0.9643 |
| `UGGGCUUGAUGAGUGGUCG` | GATA2 | -1.036 |
| `UCCUUCUCCACGUUAAGGC` | KLHL40 | 0.05058 |
| `UCUUGACCAACCACGAAGC` | BTBD19 | -0.7308 |
| `UGCAUUGUCACUCAUUCCG` | NAV2 | -1.188 |
| `UGACAGUCAUGGUUUCUGU` | EPB41L1 | 0.319 |
| `UUCCGUGCUAAAACGGUCU` | AP1S2 | -0.0718 |
| `UUAGCUUGUAAAAAUAUCU` | TWIST2 | 1.867 |
| `AAUUGAAUGACAUGAUCCA` | COX8A | 0.7411 |
| `ACUUUUUCCAGGUAGCUCC` | PSMD7 | -0.8923 |
| `UCGAAAUCCAGGUACCUCU` | CYP46A1 | 0.8178 |
| `ACAUCGUUGAGGCUAAUCC` | PARP4 | -0.1116 |
| `UAGAUUGGAAAACCUCGGC` | COL18A1-AS1 | 0.4254 |
| `UGCAAUACAACUGAACAGC` | TBC1D12 | 0.8047 |
| `UUGGGAUAAACGAAGGACA` | B4GALNT4 | 0.09302 |
| `UCCACGAAGAUCUAGAUGG` | SLITRK6 | 0.1201 |
| `UUAGACAAAAACGAUCUUC` | ASXL2 | 0.1447 |
| `AUCGGAUUCACUAAUACAG` | MTRR | 0.22 |
| `UAAGUCGAAUACUUCAUCC` | SNX13 | -0.255 |
| `GAUGUAGUAAUACUCGUGG` | EFNA2 | 0.1662 |
| `AUCUUGGACGCCACCAUCC` | PSMB10 | -0.8269 |
| `UCAUCGUUCACCUCGUUUG` | PYGO1 | -0.5104 |
| `UCUUCGGGAACUUUCACCC` | DPPA5 | -0.2668 |
| `UGUGGUUCAUCAGAGACAC` | SYT15 | -0.7958 |
| `UCCGUUCUCAGGUACUUGC` | APOB | 0.2541 |
| `UUAAGGUAAAACGUGGUCC` | RPF1 | 0.4867 |
| `UUAGUUUACCAUCUUCCUC` | LINC01197 | -0.03102 |
| `UCCUUCUCAUGUUCCUUCU` | CBX2 | 0.8062 |
| `AAUCUUCCCAGAACUGACC` | SLC27A3 | 0.1464 |
| `UCGCUUUCGAAUGUCCUGG` | TRAF4 | -1.256 |
| `UUUGUUAACGGAGUACAUC` | BIRC8 | 0.09683 |
| `UUCUCGAUUUAUACGAUCC` | NCOR1P2 | -1.111 |
| `UACAUUCGCGUAUCUAUUC` | PTPRD | 0.205 |
| `UCCGAUACAAAUUGGAGCG` | SLFN14 | 0.0336 |
| `CGAGUUAUACUUGAAACUC` | GLI4 | 0.5893 |
| `UCAAUUUCUCGGCUCGACA` | KDF1 | -0.9157 |
| `UAUUGUCGUACUAACAUCC` | LMBRD2 | -0.8342 |
| `UAAGAUACAGAGCUUAGGG` | OR1D2 | -0.4816 |
| `UGUCGAAUAAGGUAAGUAC` | ZNF287 | 0.1035 |
| `UUCUGGAAAUGUGAUAAAC` | KLHL38 | 0.2893 |
| `UUCAAGUUCCCGUAGUUUG` | IRX2 | 0.3058 |
| `UCAUUGAUUACCGAGCCUC` | DERL1 | 0.8135 |
| `UGGAUAUCCUUGACGAUCU` | CAV3 | 0.07358 |
| `UUCUGGGUGAACUUGUUGC` | CHST11 | 1.65 |
| `UAGGGUAGGUCAAAUAUGG` | RPL6P1 | -1.396 |
| `UCUCUUCUCUCCAUAAACU` | FBL | 1.524 |
| `UCGAGAACCUUUGUAGUCC` | CDH18 | 0.3428 |
| `UUUCGUCCAAUUCUGUCCC` | ATXN7 | 0.8353 |
| `AUAUCAAGCAGAUACAUGC` | ODC1 | 0.004524 |
| `UUUAACUUUGGAUCUUCUC` | C1QTNF1 | 0.7095 |
| `UCUUGAACCAAACCUGAAC` | CRX | -0.891 |
| `UUUUUAAGCCUUUUCAUUG` | NEUROG1 | 0.3061 |
| `UCGGUGAUGAUCAAUGAGG` | ZNF567 | -0.6143 |
| `AGAUGUACAGGAUCUUCCC` | PER2 | -0.541 |
| `UUCAUAAUGACGUAUAAUC` | YWHAEP7 | 0.5227 |
| `UAUGGUUAGAAUGCAGAGC` | TCEAL7 | 0.4481 |
| `UCAAGUUUUUCGUUGAUUG` | TPT1P8 | 1.062 |
| `AAUGCAACUAUUUUCAGAC` | MTIF3 | 0.5591 |
| `UGUCUCAUAAGGUUCGAGG` | ZNF479 | 0.05097 |
| `UAUGAGAUAGGAACUCUGG` | ZNF774 | 0.4671 |
| `UUUUGUGCAACAGCAUCUC` | TOMM20L | -0.154 |
| `AUCACGAUAAUGUCUUCUG` | TDO2 | -0.1724 |
| `AGUUGGACAGUAAAUGAGG` | CRACR2A | 0.1805 |
| `UUCACUAUCCUUCAACUUC` | HMGXB4 | 1.082 |
| `UGCAUUCUGAUUGACAGGC` | SIX4 | 0.08257 |
| `UGCUAUAUAUGGAUCUUGC` | WDR48 | 1.073 |
| `UCCUUUGUCGGAGCUCACG` | SMTN | 0.3332 |

The first 8 entries again:

| Sequence | gene | seed-corrected z-score |
|---|---|---|
| `UCGGGAUUAAGAUGGGCUC` | AMBP | 0.3907 |
| `UAAACGUAAACUUAUAUGG` | TM9SF2 | -0.07703 |
| `UUAGAUUAAUCUUAAUGGG` | EIF2S1 | -0.7832 |
| `UCUCCUAUUAACCAUAUCC` | SMC6 | -0.3534 |
| `UUACUGAAGUCGCCAAGCA` | AKR1C2 | 0.04257 |
| `UACCUGUUCACUCUUUGGG` | ZNF232 | 0.1199 |
| `AAAGCGAGAAAUCUCAAUC` | HRASLS2 | 0.09415 |
| `UCACGGUCUUCUCAAAUGC` | PPP1R3B | -0.9452 |

Data taken from PubChem BioAssay AID1159506, deposited by NCATS (2015).